Source: patent publication US20250136702A1, “HUMAN LIFR ANTIGEN BINDING PROTEIN, PREPARATION METHOD THEREFOR, AND APPLICATION THEREOF” (NONA BIOSCIENCES (SUZHOU) CO., LTD., priority 2020, published 2025)
Results are given in words; binding and its absence hold for the method and conditions named. Binding calls can cover weak binding; strength is not graded here.

Legend:
[1] = biological target: monkey LIFR-ECD protein (monkey); assay: ELISA
[2] = biological target: human LIFR-ECD protein (human); assay: ELISA
[3] = biological target: human LIFR-ECD protein (human); assay: ELISA on plate-coated human LIFR-ECD (1 ug/mL), anti-human IgG Fc-HRP, OD450nm against mAb concentration in nM
[4] = biological target: monkey LIFR-ECD protein (monkey); assay: ELISA on plate-coated monkey LIFR-ECD (1 ug/mL), anti-human IgG Fc-HRP, OD450nm against mAb concentration in nM

Measured: binding

B1: PR301127 (antibody, human IgG1, kappa, V domains shown)
VH: EVQLLQSGGGLVQPGGSLRLSCAASGFTFSNYAMTWVRQAPGKGLEWVSTISGSGAFTYYADAVKGRFTISRVNSKNSLDLQMNSLRAEDTAVYYCAKGGILTGFDNWGQGTLVTVSS
VL: DIQMTQSPSTLSASVGDRVTITCRASQSISSWLAWYQQKPGKAPKLLIYKASSLESGVPSRFSGSGSGTEFSFTISSLQPDDFATYYCQQYKSFSPGGLTFGGGTKVEIKR
binds: all assays above

B2: PR301177 (antibody, human IgG1, kappa, V domains shown)
VH: QVQLVESGGGVVQPGRSLRLSCVASGFTFSSYGMNWVRQAPGKGLDWVTVIWFDGSNKYYADSVKGRFTISRDNSKNTLYLQMNSLRAEDTAMYYCARGERTLDLWGQGTLVTVSS
VL: DIQMTQSPSTLSASVGDRVTITCRASQSISSWLAWYQQKPGKAPKLLIYKASSLESGVPSRFSGSGSGTEFSFTISSLQPDDFATYYCQQYKSFSPGGLTFGGGTKVEIKR
binds: all assays above

B3: PR301195 (antibody, human IgG1, kappa, V domains shown)
VH: QVQLVESGGGVVQPGRSLRLSCAASGFTFSSYGMNWVRQAPGKGLEWVAVIWFDGSIKYYADSVKGRFTISRDNSKNTLYLQMNSLRAEDTAIYYCARGQLVQDFWGRGTLVTVSS
VL: DIQMTQSPSTLSASVGDRVTITCRASQSISSWLAWYQQKPGKAPNLLMYKASNLESGVPSRFSGSGSGTEFTLTITSLQPDDFASYYCQQYKSNPLTFGGGTKVEIKR
binds: all assays above

B4: PR301196 (antibody, human IgG1, kappa, V domains shown)
VH: QVQLVESGGGVVQPGRSLRLSCAASGFTFSSYGMNWVRQAPGKGLEWVAVIWFDGSIKYYADSVKGRFTISRDNSKNTLYLQMNSLRAEDTAIYYCARGQLVQDFWGRGTLVTVSS
VL: DIQMTQSPSTLSASVGDRVTITCRASQSISSWLAWYQQKPGKAPNLLMYKASNLENGVSSRFSGSGSGTEFTLTITSLQPDDFATYYCQQYKSNPLTFGGGTKVEIKR
binds: all assays above

B5: PR301211 (antibody, human IgG1, kappa, V domains shown)
VH: QVQLVESGGGVVQPGRSLRLSCAASGFTFSSYGMHWVRQAPGKGLEWVAVIWFDGSLKYYADSVKGRFAISRDNSKNTLYLQMNSLRAEDTAIFYCARGQLVQDLWGRGTLVTVSS
VL: DIQMTQSPSTLSASVGDRVTITCRASQSISSWLAWYQQKPGKAPNLLMYKASNLESGVPSRFSGSGSGTEFTLTITSLQPDDFASYYCQQYKSNPLTFGGGTKVEIKR
binds: all assays above

B6: PR301215 (antibody, human IgG1, kappa, V domains shown)
VH: QVQLVESGGGVVQPGRSLRLSCAASGFTFSSYGMHWVRQAPGKGLEWVAVIWFDGSIKYYADSVKGRFTISRDNSKNTLYLQMNSLRAEDTAIYYCARGQLVQDFWGRGTLVTVSS
VL: DIQMTQSPSTLSASVGDRVTITCRASQSISSWLAWYQQKPGKAPNLLMYKASNLESGVPSRFSGSGSGTEFTLTITSLQPDDFASYYCQQYKSNPLTFGGGTKVEIKR
binds: all assays above

B7: PR301218 (antibody, human IgG1, kappa, V domains shown)
VH: QVQLVESGGGVVQPGRSLRLSCAASGFTFSSYGMHWVRQAPGKGLEWVAVIWFDGSVKYYADSVKGRFTISRDNSKNTLYLQMNSLRAEDTAIYYCARGQLVQDFWGRGTLVTVSS
VL: DIQMTQSPSTLSASVGDRVTITCRASQSISSWLAWYQQKPGKAPNLLMYKASNLESGVPSRFSGSGSGTEFTLTITSLQPDDFASYYCQQYKSNPLTFGGGTKVEIKR
binds: all assays above

B8: PR301172 (antibody, human IgG1, kappa, V domains shown)
VH: EVQLLESGGGLVQPGGSLRLSCATSGFTFSNYAMTWVRQAPGKGLEWVVISGSGFLTYYADAVKGRFTISRVNSKNSLYLQMNSLRAEDTAVYYCTKGGILTGFDYWGQGTLVTVSS
VL: KIVMTQSPATLSVSPGERATLSCRASQNLNSNLAWYQQTPGQAPRLLIYGASTRAPGIPARFSGSGSGTEFTLTISSLQSEDFVVYFCQQYNNWPRTFGQGTKVEIKR
binds: all assays above
